Results reported in the supplement of paper PMC10849652.
The other results are listed elsewhere or left out.

Sequences of proteins named here, by UniProt entry; tags and fusion partners are left off. A change or cut given only in a name is not applied to a line headed by its entry.
UniProt Q08257: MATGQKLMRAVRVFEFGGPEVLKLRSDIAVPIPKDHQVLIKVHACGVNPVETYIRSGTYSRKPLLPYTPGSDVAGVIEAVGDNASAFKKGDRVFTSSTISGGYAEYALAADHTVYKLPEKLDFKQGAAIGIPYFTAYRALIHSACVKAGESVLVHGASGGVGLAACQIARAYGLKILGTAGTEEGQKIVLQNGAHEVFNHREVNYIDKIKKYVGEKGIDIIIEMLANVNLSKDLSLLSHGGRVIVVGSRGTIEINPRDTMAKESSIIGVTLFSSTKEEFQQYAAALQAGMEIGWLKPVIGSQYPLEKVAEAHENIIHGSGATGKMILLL
UniProt Q9Y2Z9: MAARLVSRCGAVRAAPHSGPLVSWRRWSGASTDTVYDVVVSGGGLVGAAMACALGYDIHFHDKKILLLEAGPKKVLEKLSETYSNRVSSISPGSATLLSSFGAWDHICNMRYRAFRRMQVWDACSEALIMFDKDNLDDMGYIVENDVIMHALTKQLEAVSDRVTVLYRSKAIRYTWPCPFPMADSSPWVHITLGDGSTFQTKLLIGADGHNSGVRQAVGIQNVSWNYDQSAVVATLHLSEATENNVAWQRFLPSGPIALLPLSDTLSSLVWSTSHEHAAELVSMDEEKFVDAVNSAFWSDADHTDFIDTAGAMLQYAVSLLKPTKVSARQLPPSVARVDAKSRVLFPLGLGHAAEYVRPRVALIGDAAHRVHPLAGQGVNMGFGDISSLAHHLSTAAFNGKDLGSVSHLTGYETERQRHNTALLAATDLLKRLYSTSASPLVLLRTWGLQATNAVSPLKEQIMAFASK
UniProt Q9H3G5: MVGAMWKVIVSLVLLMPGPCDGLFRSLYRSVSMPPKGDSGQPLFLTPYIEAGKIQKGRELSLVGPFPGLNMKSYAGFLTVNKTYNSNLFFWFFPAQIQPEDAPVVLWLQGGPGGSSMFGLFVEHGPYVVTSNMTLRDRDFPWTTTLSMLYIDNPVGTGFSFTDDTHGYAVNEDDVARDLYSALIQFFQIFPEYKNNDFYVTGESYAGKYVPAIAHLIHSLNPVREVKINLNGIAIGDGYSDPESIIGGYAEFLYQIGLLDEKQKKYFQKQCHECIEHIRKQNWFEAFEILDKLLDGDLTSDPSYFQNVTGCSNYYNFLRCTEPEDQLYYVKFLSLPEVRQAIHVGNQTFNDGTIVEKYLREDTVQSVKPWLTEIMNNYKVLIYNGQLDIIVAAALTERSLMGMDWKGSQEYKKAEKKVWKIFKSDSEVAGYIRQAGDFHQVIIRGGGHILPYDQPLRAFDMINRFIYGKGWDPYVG
UniProt Q5HYK3: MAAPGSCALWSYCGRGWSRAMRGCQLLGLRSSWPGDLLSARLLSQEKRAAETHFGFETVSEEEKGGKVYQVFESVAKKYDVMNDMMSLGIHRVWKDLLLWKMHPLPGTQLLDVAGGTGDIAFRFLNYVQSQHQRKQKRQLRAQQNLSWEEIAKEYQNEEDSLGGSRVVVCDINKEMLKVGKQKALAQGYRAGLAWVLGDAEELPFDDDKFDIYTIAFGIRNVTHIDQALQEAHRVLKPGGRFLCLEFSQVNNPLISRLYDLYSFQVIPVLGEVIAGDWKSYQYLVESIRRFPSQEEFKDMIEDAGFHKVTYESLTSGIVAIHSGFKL
UniProt Q92793, whole entry, looked up: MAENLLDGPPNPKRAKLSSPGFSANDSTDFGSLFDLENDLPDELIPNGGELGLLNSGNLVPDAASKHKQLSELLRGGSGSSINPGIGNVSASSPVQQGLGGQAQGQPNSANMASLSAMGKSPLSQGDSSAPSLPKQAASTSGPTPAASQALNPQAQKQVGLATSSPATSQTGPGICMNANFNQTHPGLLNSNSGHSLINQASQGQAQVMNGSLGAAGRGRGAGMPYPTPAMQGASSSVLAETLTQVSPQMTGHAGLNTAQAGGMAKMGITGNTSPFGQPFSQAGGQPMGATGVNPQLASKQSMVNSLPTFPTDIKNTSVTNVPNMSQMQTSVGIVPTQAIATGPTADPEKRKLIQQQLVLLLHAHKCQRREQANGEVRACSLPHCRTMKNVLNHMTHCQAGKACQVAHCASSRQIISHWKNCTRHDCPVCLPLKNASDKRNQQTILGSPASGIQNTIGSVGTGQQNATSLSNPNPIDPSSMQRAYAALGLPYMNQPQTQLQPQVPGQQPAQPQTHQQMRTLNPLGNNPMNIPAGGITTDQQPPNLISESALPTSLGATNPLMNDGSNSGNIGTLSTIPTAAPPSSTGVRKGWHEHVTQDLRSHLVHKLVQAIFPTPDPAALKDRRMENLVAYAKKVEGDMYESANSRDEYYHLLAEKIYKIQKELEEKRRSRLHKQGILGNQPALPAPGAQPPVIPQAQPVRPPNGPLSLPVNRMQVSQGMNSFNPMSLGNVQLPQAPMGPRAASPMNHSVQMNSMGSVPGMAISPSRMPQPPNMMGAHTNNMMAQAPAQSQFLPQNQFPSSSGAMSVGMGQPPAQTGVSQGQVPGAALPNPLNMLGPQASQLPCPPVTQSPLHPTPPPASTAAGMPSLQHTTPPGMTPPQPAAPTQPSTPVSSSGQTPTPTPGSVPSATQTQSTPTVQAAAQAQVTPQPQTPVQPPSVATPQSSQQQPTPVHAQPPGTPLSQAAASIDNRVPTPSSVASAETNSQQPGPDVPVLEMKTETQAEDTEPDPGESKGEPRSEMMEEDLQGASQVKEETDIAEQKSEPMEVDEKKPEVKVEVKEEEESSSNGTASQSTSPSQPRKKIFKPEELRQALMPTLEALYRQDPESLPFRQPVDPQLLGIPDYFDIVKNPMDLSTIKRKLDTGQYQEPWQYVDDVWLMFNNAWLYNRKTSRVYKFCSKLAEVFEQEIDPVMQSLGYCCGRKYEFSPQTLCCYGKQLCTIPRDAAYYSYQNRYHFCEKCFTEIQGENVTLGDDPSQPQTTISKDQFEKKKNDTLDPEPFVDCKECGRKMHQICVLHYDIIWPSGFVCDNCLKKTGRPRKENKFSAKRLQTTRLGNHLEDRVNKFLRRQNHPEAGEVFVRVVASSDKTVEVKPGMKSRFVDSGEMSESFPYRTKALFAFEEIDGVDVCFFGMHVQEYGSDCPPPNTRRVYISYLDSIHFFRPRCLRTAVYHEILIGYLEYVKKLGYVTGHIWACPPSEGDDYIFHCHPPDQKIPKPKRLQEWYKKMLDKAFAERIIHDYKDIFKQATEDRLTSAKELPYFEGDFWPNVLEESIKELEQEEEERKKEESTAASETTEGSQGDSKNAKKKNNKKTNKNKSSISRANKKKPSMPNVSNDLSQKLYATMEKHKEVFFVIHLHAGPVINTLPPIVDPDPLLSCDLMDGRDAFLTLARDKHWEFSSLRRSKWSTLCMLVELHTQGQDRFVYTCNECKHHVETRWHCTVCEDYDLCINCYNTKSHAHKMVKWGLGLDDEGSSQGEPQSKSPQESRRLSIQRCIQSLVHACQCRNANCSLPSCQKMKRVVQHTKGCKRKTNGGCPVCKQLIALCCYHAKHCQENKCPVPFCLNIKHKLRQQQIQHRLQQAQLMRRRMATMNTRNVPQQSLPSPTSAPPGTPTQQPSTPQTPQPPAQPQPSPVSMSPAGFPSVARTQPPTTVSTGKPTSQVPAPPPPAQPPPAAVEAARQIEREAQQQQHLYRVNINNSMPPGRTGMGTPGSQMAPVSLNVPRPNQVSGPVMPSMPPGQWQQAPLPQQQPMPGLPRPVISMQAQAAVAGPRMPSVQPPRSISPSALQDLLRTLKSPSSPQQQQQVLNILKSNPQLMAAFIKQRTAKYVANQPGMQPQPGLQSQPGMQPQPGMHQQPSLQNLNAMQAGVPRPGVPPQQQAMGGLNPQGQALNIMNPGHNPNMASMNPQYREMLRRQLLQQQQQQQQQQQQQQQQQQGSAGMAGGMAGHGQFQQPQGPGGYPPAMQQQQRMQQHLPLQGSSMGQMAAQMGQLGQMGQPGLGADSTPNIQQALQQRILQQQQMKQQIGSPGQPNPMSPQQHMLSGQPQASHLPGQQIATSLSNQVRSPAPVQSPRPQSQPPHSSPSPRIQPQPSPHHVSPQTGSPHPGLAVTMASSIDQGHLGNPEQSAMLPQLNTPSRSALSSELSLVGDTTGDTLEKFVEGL
UniProt Q8N752: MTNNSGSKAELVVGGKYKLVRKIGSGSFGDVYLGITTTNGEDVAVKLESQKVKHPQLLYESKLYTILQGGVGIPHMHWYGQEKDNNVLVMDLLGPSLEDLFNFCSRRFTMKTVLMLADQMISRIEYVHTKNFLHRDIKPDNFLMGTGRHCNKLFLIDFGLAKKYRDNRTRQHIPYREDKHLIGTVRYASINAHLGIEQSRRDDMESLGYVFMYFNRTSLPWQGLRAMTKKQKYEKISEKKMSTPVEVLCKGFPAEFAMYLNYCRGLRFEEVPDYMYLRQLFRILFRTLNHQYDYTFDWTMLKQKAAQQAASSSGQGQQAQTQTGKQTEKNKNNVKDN
UniProt P53618: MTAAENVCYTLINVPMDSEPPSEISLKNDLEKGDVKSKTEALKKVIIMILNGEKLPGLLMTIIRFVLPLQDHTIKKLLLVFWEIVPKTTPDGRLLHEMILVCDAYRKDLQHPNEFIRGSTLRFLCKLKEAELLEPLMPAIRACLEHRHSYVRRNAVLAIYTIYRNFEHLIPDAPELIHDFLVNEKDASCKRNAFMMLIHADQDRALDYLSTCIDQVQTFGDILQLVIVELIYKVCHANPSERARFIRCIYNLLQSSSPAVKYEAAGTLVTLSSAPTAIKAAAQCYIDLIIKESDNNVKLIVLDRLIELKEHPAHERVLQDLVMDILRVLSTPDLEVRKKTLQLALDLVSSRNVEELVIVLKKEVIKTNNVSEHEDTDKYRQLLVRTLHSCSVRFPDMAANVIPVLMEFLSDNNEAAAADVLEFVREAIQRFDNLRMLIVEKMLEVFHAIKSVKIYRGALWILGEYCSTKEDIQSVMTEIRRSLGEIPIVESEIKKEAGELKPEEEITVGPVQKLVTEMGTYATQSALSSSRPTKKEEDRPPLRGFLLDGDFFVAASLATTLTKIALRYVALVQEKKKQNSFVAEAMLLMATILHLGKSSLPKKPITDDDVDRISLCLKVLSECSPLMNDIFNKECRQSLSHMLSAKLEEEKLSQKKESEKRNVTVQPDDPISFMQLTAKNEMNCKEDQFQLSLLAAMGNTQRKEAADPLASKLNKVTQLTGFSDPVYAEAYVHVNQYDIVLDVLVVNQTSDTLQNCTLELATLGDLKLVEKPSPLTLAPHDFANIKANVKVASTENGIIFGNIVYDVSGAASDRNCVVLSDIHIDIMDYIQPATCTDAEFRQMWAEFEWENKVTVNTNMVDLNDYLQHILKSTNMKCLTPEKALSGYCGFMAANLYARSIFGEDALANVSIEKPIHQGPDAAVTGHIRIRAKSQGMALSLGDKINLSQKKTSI
UniProt Q99829: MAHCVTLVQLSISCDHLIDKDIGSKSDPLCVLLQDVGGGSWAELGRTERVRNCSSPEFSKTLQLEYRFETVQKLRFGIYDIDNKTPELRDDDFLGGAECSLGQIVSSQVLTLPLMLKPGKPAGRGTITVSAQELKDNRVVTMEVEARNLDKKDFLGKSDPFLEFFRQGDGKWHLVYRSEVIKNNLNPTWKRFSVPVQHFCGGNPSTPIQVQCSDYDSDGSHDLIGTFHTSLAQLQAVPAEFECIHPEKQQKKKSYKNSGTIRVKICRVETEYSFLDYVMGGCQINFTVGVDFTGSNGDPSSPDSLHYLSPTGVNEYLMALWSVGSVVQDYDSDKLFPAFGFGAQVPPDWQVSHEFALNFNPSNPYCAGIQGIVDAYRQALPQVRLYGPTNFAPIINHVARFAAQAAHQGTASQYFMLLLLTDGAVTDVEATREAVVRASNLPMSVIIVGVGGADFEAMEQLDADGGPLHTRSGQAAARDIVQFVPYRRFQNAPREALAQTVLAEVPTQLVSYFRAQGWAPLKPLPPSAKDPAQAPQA
UniProt A4D126: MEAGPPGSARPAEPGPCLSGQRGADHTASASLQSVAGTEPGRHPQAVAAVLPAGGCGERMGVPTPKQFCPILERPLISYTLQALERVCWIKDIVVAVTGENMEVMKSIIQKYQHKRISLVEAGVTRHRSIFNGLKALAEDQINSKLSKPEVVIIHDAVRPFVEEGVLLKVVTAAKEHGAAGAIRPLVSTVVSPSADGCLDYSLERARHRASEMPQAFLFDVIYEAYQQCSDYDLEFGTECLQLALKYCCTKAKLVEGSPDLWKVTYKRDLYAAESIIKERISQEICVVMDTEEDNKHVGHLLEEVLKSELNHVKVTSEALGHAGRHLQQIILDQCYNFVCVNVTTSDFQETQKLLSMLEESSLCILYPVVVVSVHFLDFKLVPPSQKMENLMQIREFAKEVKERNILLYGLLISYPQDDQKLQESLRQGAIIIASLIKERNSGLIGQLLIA
UniProt O75629: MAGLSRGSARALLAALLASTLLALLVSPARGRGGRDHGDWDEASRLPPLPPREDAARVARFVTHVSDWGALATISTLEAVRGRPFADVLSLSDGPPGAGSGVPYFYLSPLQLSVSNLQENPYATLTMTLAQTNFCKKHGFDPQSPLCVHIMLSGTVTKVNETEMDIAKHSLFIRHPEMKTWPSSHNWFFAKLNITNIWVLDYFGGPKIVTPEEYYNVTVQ

Tests used:
Assay in all cases: log2 fold change, soluble protein after heating vs DMSO (PISA); higher = thermal stabilisation; K562 cells, 10 uM, 30 min; active = over 0.2 and 3.5 SD of the protein, either way, in both replicates (recomputed)
[1] = compound: CS(=O)(=O)c1ccc(-c2cnc(N)c(C(=O)Nc3ccccc3)n2)cc1
Outline: (§1)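 Values are thermal stability changes relative to control samples and are taken from duplicates. They are stated as log2 fold changes. Before quantification by TMTpro 16plex LC-MS/MS with equalised channel sums, K562 cells at 2×10^6 cells/mL were treated with 10 μM compound for 30 min, heated in aliquots for 3 min across 48°C-58°C, pooled, extracted in PBS with 0.5% NP-40 at 4°C, and centrifuged at 21,000xg for 90 min to give the soluble supernatant.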

crizotinib = compound: C[C@@H](Oc1cc(-c2cnn(C3CCNCC3)c2)cnc1N)c1c(Cl)ccc(F)c1Cl [crizotinib]
Outline: as §1

[2] = compound: C[C@@H]1COCCN1C2=NC(=NC(=C2)C3(CC3)S(=O)(=O)C)C4=C5C=CNC5=CC=C4
Outline: as §1

[3] = compound: C[C@H](C1=CC=C(C=C1)C(=O)NC2=C3C=CNC3=NC=C2)N
Outline: as §1

duvelisib = compound: C[C@H](Nc1ncnc2nc[nH]c12)c1cc2cccc(Cl)c2c(=O)n1-c1ccccc1 [duvelisib]
Outline: as §1

gandotinib = compound: Cc1cc(Nc2cc(CN3CCOCC3)c3nc(C)c(Cc4ccc(Cl)cc4F)n3n2)n[nH]1 [gandotinib]
Outline: as §1

tozasertib = compound: Cc1cc(Nc2cc(N3CCN(C)CC3)nc(Sc3ccc(NC(=O)C4CC4)cc3)n2)n[nH]1 [tozasertib]
Outline: as §1

[4] = compound: Cc1cc(SCc2sc(-c3ccc(C(F)(F)F)cc3)nc2C)ccc1OCC(=O)O
Outline: as §1

doramapimod = compound: Cc1ccc(-n2nc(C(C)(C)C)cc2NC(=O)Nc2ccc(OCCN3CCOCC3)c3ccccc23)cc1 [doramapimod]
Outline: as §1

ispinesib = compound: Cc1ccc(C(=O)N(CCCN)[C@@H](c2nc3cc(Cl)ccc3c(=O)n2Cc2ccccc2)C(C)C)cc1 [ispinesib]
Outline: as §1

bafetinib = compound: Cc1ccc(NC(=O)c2ccc(CN3CC[C@H](N(C)C)C3)c(C(F)(F)F)c2)cc1Nc1nccc(-c2cncnc2)n1 [bafetinib]
Outline: as §1

[5] = compound: Cc1cccc(CC(=O)N2CCc3c2ccc(-c2cn(C)c4ncnc(N)c24)c3F)n1
Outline: as §1

nilotinib = compound: Cc1cn(-c2cc(NC(=O)c3ccc(C)c(Nc4nccc(-c5cccnc5)n4)c3)cc(C(F)(F)F)c2)cn1 [nilotinib]
Outline: as §1

[6] = compound: Cc1nc(Nc2n[nH]c3c2CN(C(=O)N[C@H](CN(C)C)c2ccccc2)C3(C)C)c2sccc2n1
Outline: as §1

dasatinib = compound: Cc1nc(Nc2ncc(C(=O)Nc3c(C)cccc3Cl)s2)cc(N2CCN(CCO)CC2)n1 [dasatinib]
Outline: as §1

[7] = compound: Cc1ncc(-c2ccnc(Nc3ccc(S(C)(=O)=O)cc3)n2)n1C(C)C
Outline: as §1

[8] = compound: Cn1cc(-c2ccc3c(c2)CCN3C(=O)Cc2cccc(C(F)(F)F)c2)c2c(N)ncnc21
Outline: as §1

[9] = compound: Cn1cc(-c2ccc3nnc(C(F)(F)c4ccc5ncccc5c4)n3n2)cn1
Outline: as §1

tipifarnib = compound: Cn1cncc1[C@@](N)(c1ccc(Cl)cc1)c1ccc2c(c1)c(-c1cccc(Cl)c1)cc(=O)n2C [tipifarnib]
Outline: as §1

mubritinib = compound: FC(F)(F)c1ccc(/C=C/c2nc(COc3ccc(CCCCn4ccnn4)cc3)co2)cc1 [mubritinib]
Outline: as §1

Measured: log2 fold change

CRYZ (UniProt Q08257)
inactive: [1] 0.047 | crizotinib 0.007 | [2] 0.033 | [3] -0.053 | duvelisib 0.051 | gandotinib -0.028 | tozasertib 0.002 | [4] -0.001 | doramapimod -0.063 | ispinesib 0.042 | bafetinib -0.044 | [5] -0.052 | nilotinib 0.002 | [6] 0.004 | dasatinib 0.033 | [7] -0.012 | [8] 0.037 | [9] -0.01 | tipifarnib -0.037 | mubritinib -0.018

CPNE3 (UniProt O75131)
inactive: [1] 0.006 | crizotinib 0.1 | [2] -0.016 | [3] -0.112 | duvelisib 0 | gandotinib 0.01 | tozasertib -0.061 | [4] -0.016 | doramapimod -0.067 | ispinesib 0.126 | bafetinib -0.02 | [5] 0.004 | nilotinib 0.046 | [6] -0.083 | dasatinib 0.008 | [7] 0.007 | [8] 0.04 | [9] -0.036 | tipifarnib 0.013 | mubritinib 0.105

COQ6 (UniProt Q9Y2Z9)
inactive: [1] 0.069 | crizotinib 0.021 | [2] 0.087 | [3] 0.015 | duvelisib 0.044 | gandotinib 0.169 | tozasertib -0.023 | [4] 0.048 | doramapimod -0.051 | ispinesib 0.008 | bafetinib -0.03 | [5] 0.064 | nilotinib 0.034 | [6] -0.051 | dasatinib -0.093 | [7] -0.053 | [8] 0.064 | [9] 0.074 | tipifarnib -0.056 | mubritinib 0.042

CPVL (UniProt Q9H3G5)
inactive: [1] 0 | crizotinib -0.084 | [2] 0.078 | [3] 0.171 | duvelisib 0.205 | gandotinib 0.023 | tozasertib -0.053 | [4] -0.046 | doramapimod -0.004 | ispinesib -0.194 | bafetinib -0.028 | [5] -0.046 | nilotinib -0.156 | [6] 0.041 | dasatinib 0.043 | [7] -0.054 | [8] -0.03 | [9] 0.097 | tipifarnib 0.069 | mubritinib 0.027

CORO1C isoform 3 (UniProt Q9ULV4)
inactive: [1] -0.075 | crizotinib 0.089 | [2] -0.053 | [3] -0.098 | duvelisib -0.026 | gandotinib 0 | tozasertib 0.069 | [4] 0.005 | doramapimod -0.008 | ispinesib 0.161 | bafetinib 0.007 | [5] 0.05 | nilotinib 0.038 | [6] -0.06 | dasatinib 0.043 | [7] 0.073 | [8] 0.034 | [9] -0.046 | tipifarnib 0.003 | mubritinib 0.004

CSNK1G3 (UniProt Q9Y6M4)
inactive: [1] 0.038 | crizotinib -0.237 | [2] -0.179 | [3] 0.154 | duvelisib -0.018 | gandotinib 0.012 | tozasertib 0 | [4] 0.067 | doramapimod 0.127 | ispinesib -0.172 | bafetinib 0.128 | [5] -0.018 | nilotinib 0.161 | [6] -0.025 | dasatinib 0.095 | [7] -0.002 | [8] 0 | [9] -0.048 | tipifarnib 0.075 | mubritinib -0.069

COQ5 (UniProt Q5HYK3)
inactive: [1] 0.045 | crizotinib -0.069 | [2] 0.093 | [3] 0.02 | duvelisib 0.102 | gandotinib 0.022 | tozasertib -0.083 | [4] 0.02 | doramapimod 0.003 | ispinesib -0.016 | bafetinib -0.099 | [5] -0.057 | nilotinib 0.031 | [6] 0.001 | dasatinib -0.086 | [7] 0.001 | [8] 0.049 | [9] -0.005 | tipifarnib 0.02 | mubritinib 0.036

CREBBP (UniProt Q92793)
inactive: [1] 0.021 | crizotinib 0.005 | [2] 0.041 | [3] -0.1 | duvelisib 0.041 | gandotinib -0.04 | tozasertib -0.043 | [4] 0.036 | doramapimod -0.009 | ispinesib 0.038 | bafetinib 0.032 | [5] -0.015 | nilotinib 0.024 | [6] -0.023 | dasatinib -0.068 | [7] -0.028 | [8] 0.068 | [9] -0.002 | tipifarnib -0.023 | mubritinib 0.011

CSNK1A1L (UniProt Q8N752)
inactive: [1] -0.067 | crizotinib -0.094 | [2] -0.091 | [3] -0.01 | duvelisib 0.009 | gandotinib 0.006 | tozasertib -0.039 | [4] 0.03 | doramapimod 0.054 | ispinesib -0.088 | bafetinib 0.083 | [5] 0.105 | nilotinib -0.036 | [6] -0.004 | dasatinib -0.005 | [7] 0.066 | [8] -0.083 | [9] -0.047 | tipifarnib -0.016 | mubritinib -0.093

COPB1 (UniProt P53618)
inactive: [1] -0.016 | crizotinib 0.027 | [2] 0.048 | [3] -0.046 | duvelisib 0.03 | gandotinib -0.038 | tozasertib 0.011 | [4] 0.03 | doramapimod -0.022 | ispinesib 0.114 | bafetinib 0.009 | [5] 0.032 | nilotinib -0.024 | [6] -0.016 | dasatinib -0.052 | [7] -0.01 | [8] 0.003 | [9] -0.019 | tipifarnib -0.056 | mubritinib 0.028

COPA isoform 2 (UniProt P53621)
inactive: [1] 0.009 | crizotinib 0.057 | [2] 0.033 | [3] 0.002 | duvelisib 0.042 | gandotinib -0.017 | tozasertib 0.003 | [4] 0.043 | doramapimod -0.026 | ispinesib 0.131 | bafetinib -0.015 | [5] 0 | nilotinib -0.006 | [6] -0.025 | dasatinib -0.038 | [7] 0.001 | [8] 0.001 | [9] -0.021 | tipifarnib -0.011 | mubritinib 0.019

Fetched one by one from the entries so far (two):
COPB1 (UniProt P53618)
inactive: [1] -0.016 | crizotinib 0.027 | [2] 0.048 | [3] -0.046 | duvelisib 0.03 | gandotinib -0.038 | tozasertib 0.011 | [4] 0.03 | doramapimod -0.022 | ispinesib 0.114 | bafetinib 0.009 | [5] 0.032 | nilotinib -0.024 | [6] -0.016 | dasatinib -0.052 | [7] -0.01 | [8] 0.003 | [9] -0.019 | tipifarnib -0.056 | mubritinib 0.028

CORO1C isoform 3 (UniProt Q9ULV4)
inactive: [1] -0.075 | crizotinib 0.089 | [2] -0.053 | [3] -0.098 | duvelisib -0.026 | gandotinib 0 | tozasertib 0.069 | [4] 0.005 | doramapimod -0.008 | ispinesib 0.161 | bafetinib 0.007 | [5] 0.05 | nilotinib 0.038 | [6] -0.06 | dasatinib 0.043 | [7] 0.073 | [8] 0.034 | [9] -0.046 | tipifarnib 0.003 | mubritinib 0.004

Going on with the list:

COX4I1 (UniProt P13073)
inactive: [1] -0.036 | crizotinib 0.036 | [2] 0.002 | [3] -0.044 | duvelisib 0.007 | gandotinib -0.007 | tozasertib -0.008 | [4] -0.025 | doramapimod 0.005 | ispinesib 0.015 | bafetinib -0.021 | [5] -0.018 | nilotinib 0.015 | [6] 0.044 | dasatinib 0.048 | [7] -0.039 | [8] 0.013 | [9] -0.005 | tipifarnib 0.026 | mubritinib 0.019

CPNE1 (UniProt Q99829)
inactive: [1] 0.055 | crizotinib 0.009 | [2] 0.069 | [3] -0.056 | duvelisib -0.027 | gandotinib -0.011 | tozasertib -0.001 | [4] -0.12 | doramapimod -0.028 | ispinesib 0.03 | bafetinib -0.004 | [5] 0.029 | nilotinib 0.016 | [6] 0.019 | dasatinib 0.026 | [7] 0.034 | [8] 0.032 | [9] 0.003 | tipifarnib 0.005 | mubritinib 0.067

CRPPA (UniProt A4D126)
inactive: [1] 0.025 | crizotinib 0.073 | [2] 0.081 | [3] -0.042 | duvelisib 0.052 | gandotinib -0.041 | tozasertib -0.008 | [4] -0.071 | doramapimod 0.007 | ispinesib 0.014 | bafetinib -0.035 | [5] -0.064 | nilotinib -0.016 | [6] 0.005 | dasatinib 0.013 | [7] -0.029 | [8] 0.004 | [9] 0.045 | tipifarnib 0.057 | mubritinib 0.082

CREG1 (UniProt O75629)
inactive: [1] 0 | crizotinib -0.022 | [2] 0.108 | [3] 0.096 | duvelisib -0.04 | gandotinib 0.04 | tozasertib 0.076 | [4] -0.03 | doramapimod 0.055 | ispinesib -0.034 | bafetinib -0.016 | [5] -0.084 | nilotinib 0.006 | [6] 0.038 | dasatinib 0.026 | [7] -0.009 | [8] 0.016 | [9] -0.08 | tipifarnib -0.025 | mubritinib -0.004

COPG2 (UniProt Q9UBF2)
inactive: [1] -0.002 | crizotinib 0.043 | [2] 0.035 | [3] -0.024 | duvelisib 0.011 | gandotinib -0.045 | tozasertib 0 | [4] 0.026 | doramapimod -0.021 | ispinesib 0.126 | bafetinib 0.008 | [5] 0.025 | nilotinib -0.034 | [6] 0 | dasatinib -0.059 | [7] -0.019 | [8] 0 | [9] -0.005 | tipifarnib 0.005 | mubritinib 0.028
